# Measurements reported in PubChem BioAssay AID504793 (Drosophila RNAi Screening Center, 2011)
# Assay: 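Whole-genome screen for parts of the DNA damage checkpoint at G2/M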 (primary screen)
# System: Drosophila S2R+ cells
# Reagents: long dsRNA against Drosophila genes, about 0.25 µg dsRNA per well
# Timing: 4 days of dsRNA, then 4 hours of drug before read-out
# Treatment: doxorubicin 0.5 µM for 4 hours to cause double-strand breaks, in cells also given a low, harmless dose of dsRNA against nbs to sensitise the assay
# Detection: 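Per-well count of mitotic cells stained for phospho-histone H3 after doxorubicin exposure, used as mitotic index; counts are raw and not normalised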
# Direction: mitotic cells: higher = more cells in mitosis, weaker G2 arrest
# Rule for the call: 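a call needs confirmation in secondary tests, with other dsRNAs and a check of mitotic timing without damage, not just a high primary count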
# Meaning of the calls: active = confirmed in follow-up tests; inactive = not confirmed
# The screen tested about 23,000 reagents; below is a random part of those with a known target gene and a result. Of all reagents, 62 (0.27%) are marked active. 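Calls come from follow-up tests whose scores are not deposited, so confirmed genes may have low counts here; counts are not normalised per plate.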 Raw values vary from plate to plate and are shown uncorrected. A plus sign joins genes that one reagent is predicted to hit.
target gene,dsRNA,"mitotic cells, replicate 1",outcome
CSN1a,DRSC01951,6,inactive
Mink,DRSC14291,4,inactive
Xxylt,DRSC04107,9,inactive
CG10912,DRSC06009,7,inactive
CG10912,DRSC25420,6,inactive
CG6000,DRSC15938,9,inactive
CG10943,DRSC09805,2,inactive
CG10943,DRSC29258,6,inactive
scf,DRSC08735,6,inactive
CG8777,DRSC07263,11,inactive
Neurochondrin,DRSC12580,4,inactive
Neurochondrin,DRSC26704,2,inactive
CG17177,DRSC10257,2,inactive
Eip78C,DRSC23097,9,inactive
Clamp,DRSC03718,3,inactive
Clamp,DRSC21682,8,inactive
Clamp,DRSC29935,8,inactive
srl,DRSC12340,2,inactive
srl,DRSC29561,3,inactive
CG11409,DRSC18579,6,inactive
CG11409,DRSC28360,8,inactive
Flad1,DRSC19898,9,inactive
Manf,DRSC14091,5,inactive
ergic53,DRSC11389,4,inactive
Ppm1,DRSC08260,6,inactive
Ppm1,DRSC27792,3,inactive
lncRNA:CR31526,DRSC21520,9,inactive
lncRNA:CR31526,DRSC26871,9,inactive
CG42634 + CG42635,DRSC02450,7,inactive
CG4882,DRSC04495,7,inactive
CG4882,DRSC29963,12,inactive
CG5938,DRSC15923,8,inactive
CG5938,DRSC24038,14,inactive
CG14312,DRSC14791,6,inactive
CG3397,DRSC15487,7,inactive
CG5180,DRSC15731,5,inactive
CG10126,DRSC14191,7,inactive
mge,DRSC08721,7,inactive
CG11693,DRSC14353,2,inactive
CG11693,DRSC28503,9,inactive
DIP-kappa,DRSC01336,3,inactive
DIP-kappa,DRSC01337,5,inactive
Nrk,DRSC07480,4,inactive
CG17784,DRSC15268,17,inactive
ORY,DRSC22883,5,inactive

3 neighbouring records already listed:
target gene,dsRNA,"mitotic cells, replicate 1",outcome
ergic53,DRSC11389,4,inactive
Ppm1,DRSC08260,6,inactive
Ppm1,DRSC27792,3,inactive
